# Patent US6562464B1, “Utilization of phenylglyoxalic acid esters as photoinitiators” (BASF Aktiengesellschaft, priority 1999, dated 2003)
# Experiments:
# [1] = Erichsen indentation of UV-cured film, DIN EN ISO 1520; conditions: 4 parts photoinitiator in 96 parts Laromer LR 8987; film on glass, 50 μm or 100 μm, cured at 10 m/min under air
# [2] = Pencil hardness of UV-cured film; conditions: 4 parts photoinitiator in 96 parts Laromer LR 8987; film on glass, 50 μm or 100 μm, cured at 10 m/min under air
smiles,measurement,setting,value
"O=C(OC1CCC(OC(=O)C(=O)c2ccccc2)CC1)C(=O)c1ccccc1 (centres unmarked) [1,4-cyclohexanediol di(phenylglyoxylate)]",Erichsen indentation in accordance with DIN EN ISO 1520,[1],about 0.6 mm
same,Pencil hardness,[2],2H
